# Measurements reported in PubChem BioAssay AID1259254 (NCATS, 2017)
# Purpose: 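Genome-wide screen for genes that prevent DNA re-replication in cancer cells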 (primary screen)
# System: human HCT116 colorectal cancer cells
# Knock-down reagent: single siRNA against human genes
# Timing: 3 days
# Measurement: 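Nuclei stained with Hoechst and imaged; cell-cycle phase assigned by DNA content; G2 share scaled per plate, non-targeting siRNA 0%, GMNN siRNA 100%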
# Direction: G2 robust z-score and G2 cells, % of GMNN control: higher = more G2 cells, more excess DNA replication; raw share of cells in G2: higher = larger share of cells with G2 DNA content
# Rule for the call: 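Active siRNAs have a G2 robust z of 5 or more median absolute deviations over the median, which in these data means about 38% or higher of GMNN control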
# Here is a random part of about 59,000 deposited reagents. About 1,550 of all reagents (2.6%) were called active. 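G2 share is only a proxy for re-replication; each gene was hit by three separate siRNAs, and active genes were retested.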 Raw values vary from plate to plate and are shown uncorrected. The numbers tell different reagents against one gene apart. Not stated in the record: the amount of reagent.
Target gene,siRNA no.,G2 robust z-score,"G2 cells, % of GMNN control",raw share of cells in G2 (%),activity call
TCN2,1,2.21,18.5,13.3,inactive
TCN2,2,-0.556,-0.942,3.52,inactive
TCN2,3,0.000348,2.97,4.4,inactive
OR6N1,1,0.621,7.33,5.43,inactive
OR6N1,2,-0.729,-2.16,1.8,inactive
OR6N1,3,-0.0801,2.4,5.08,inactive
SPIRE1,1,0.682,7.77,7.22,inactive
SPIRE1,2,2.75,22.4,16.2,inactive
SPIRE1,3,2.15,18.1,11.9,inactive
MAS1,1,-1.01,-4.12,4.37,inactive
MAS1,2,0.746,8.22,7.39,inactive
MAS1,3,0.821,8.74,5.95,inactive
GAREM1,1,0.108,3.73,6.2,inactive
GAREM1,2,-0.065,2.51,5.73,inactive
GAREM1,3,0.542,6.78,4.49,inactive
POM121,1,1.34,12.4,10.9,inactive
POM121,2,0.526,6.67,6.73,inactive
POM121,3,-0.391,0.214,3.48,inactive
MIA2,1,-0.0712,2.47,5.08,inactive
MIA2,2,0.395,5.75,5.04,inactive
MIA2,3,2.09,17.7,6.99,inactive
MIA2,4,0.525,6.66,7.8,inactive
MIA2,5,1.03,10.2,8.24,inactive
MIA2,6,0.28,4.93,5.14,inactive
OR52D1,1,-0.559,-0.965,3.44,inactive
OR52D1,2,-0.782,-2.54,2.3,inactive
OR52D1,3,1.19,11.3,9.48,inactive
SPON1,1,-1.22,-5.64,1.65,inactive
SPON1,2,-0.0352,2.72,7.2,inactive
SPON1,3,-0.448,-0.184,3.26,inactive

Limited to “G2 robust z-score” (7 entries from above):
MAS1 #1: -1.01
MAS1 #2: 0.746
MAS1 #3: 0.821
GAREM1 #1: 0.108
GAREM1 #2: -0.065
GAREM1 #3: 0.542
POM121 #1: 1.34

Next reagents:
Target gene,siRNA no.,G2 robust z-score,"G2 cells, % of GMNN control",raw share of cells in G2 (%),activity call
F10,1,5.37,40.8,19.8,active
F10,2,-0.222,1.41,5.41,inactive
F10,3,-0.819,-2.8,2.87,inactive
PNLDC1,1,-0.93,-3.58,2.32,inactive
PNLDC1,2,-0.04,2.69,3.86,inactive
PNLDC1,3,-0.615,-1.36,2.33,inactive
ARL4D,1,-0.309,0.793,5.36,inactive
ARL4D,2,-0.92,-3.5,3.53,inactive
ARL4D,3,-0.617,-1.37,3.48,inactive
PACSIN3,1,3.28,26,13.7,inactive
PACSIN3,2,-0.542,-0.847,4.88,inactive
PACSIN3,3,-0.484,-0.436,3.54,inactive
RHEX,1,-0.244,1.25,4.1,inactive
RHEX,2,0.0239,3.14,4.61,inactive
RHEX,3,-0.958,-3.77,1.84,inactive
DGAT2L6,1,-0.0888,2.34,6.92,inactive
DGAT2L6,2,1.01,10,8.88,inactive
DGAT2L6,3,5.92,44.6,20.6,active
FOXE3,1,-0.855,-3.05,2.57,inactive
FOXE3,2,0.575,7.02,7.78,inactive
FOXE3,3,-1.43,-7.08,2.57,inactive
TMEM132D,1,-0.452,-0.215,4.01,inactive
TMEM132D,2,0.281,4.95,4.8,inactive
TMEM132D,3,-0.807,-2.71,1.03,inactive
SNTG1,1,-0.762,-2.4,4.87,inactive
SNTG1,2,5.63,42.6,20,active
SNTG1,3,-0.881,-3.23,2.56,inactive
SH3BP5L,1,-1.09,-4.69,2.5,inactive
SH3BP5L,2,-0.263,1.12,4.79,inactive
SH3BP5L,3,1.02,10.2,5.15,inactive
RAD9B,1,-0.723,-2.12,3.81,inactive
RAD9B,2,0.35,5.43,8.55,inactive
RAD9B,3,-1.11,-4.82,2.94,inactive
DMGDH,1,-0.244,1.25,6.73,inactive
DMGDH,2,0.788,8.51,7.01,inactive
DMGDH,3,0.141,3.96,5.29,inactive
TMEM209,1,-0.468,-0.328,3.94,inactive
TMEM209,2,0.648,7.53,5.36,inactive
TMEM209,3,1.03,10.2,6.17,inactive
